Consider one molecule from publication PMC7425996.

Results are given in words; binding and its absence hold for the method and conditions named. In cells and extracts the contact can be indirect. Here binding means that the protein was enriched with, or labelled near, the bait; the list need not be complete. Sequences can lack the tags named with a protein.

This test addresses T1, GFP-Nap1 (Dictyostelium Nap1 tagged with GFP) (Dictyostelium discoideum) (UniProt Q869Q3).
T1 sequence: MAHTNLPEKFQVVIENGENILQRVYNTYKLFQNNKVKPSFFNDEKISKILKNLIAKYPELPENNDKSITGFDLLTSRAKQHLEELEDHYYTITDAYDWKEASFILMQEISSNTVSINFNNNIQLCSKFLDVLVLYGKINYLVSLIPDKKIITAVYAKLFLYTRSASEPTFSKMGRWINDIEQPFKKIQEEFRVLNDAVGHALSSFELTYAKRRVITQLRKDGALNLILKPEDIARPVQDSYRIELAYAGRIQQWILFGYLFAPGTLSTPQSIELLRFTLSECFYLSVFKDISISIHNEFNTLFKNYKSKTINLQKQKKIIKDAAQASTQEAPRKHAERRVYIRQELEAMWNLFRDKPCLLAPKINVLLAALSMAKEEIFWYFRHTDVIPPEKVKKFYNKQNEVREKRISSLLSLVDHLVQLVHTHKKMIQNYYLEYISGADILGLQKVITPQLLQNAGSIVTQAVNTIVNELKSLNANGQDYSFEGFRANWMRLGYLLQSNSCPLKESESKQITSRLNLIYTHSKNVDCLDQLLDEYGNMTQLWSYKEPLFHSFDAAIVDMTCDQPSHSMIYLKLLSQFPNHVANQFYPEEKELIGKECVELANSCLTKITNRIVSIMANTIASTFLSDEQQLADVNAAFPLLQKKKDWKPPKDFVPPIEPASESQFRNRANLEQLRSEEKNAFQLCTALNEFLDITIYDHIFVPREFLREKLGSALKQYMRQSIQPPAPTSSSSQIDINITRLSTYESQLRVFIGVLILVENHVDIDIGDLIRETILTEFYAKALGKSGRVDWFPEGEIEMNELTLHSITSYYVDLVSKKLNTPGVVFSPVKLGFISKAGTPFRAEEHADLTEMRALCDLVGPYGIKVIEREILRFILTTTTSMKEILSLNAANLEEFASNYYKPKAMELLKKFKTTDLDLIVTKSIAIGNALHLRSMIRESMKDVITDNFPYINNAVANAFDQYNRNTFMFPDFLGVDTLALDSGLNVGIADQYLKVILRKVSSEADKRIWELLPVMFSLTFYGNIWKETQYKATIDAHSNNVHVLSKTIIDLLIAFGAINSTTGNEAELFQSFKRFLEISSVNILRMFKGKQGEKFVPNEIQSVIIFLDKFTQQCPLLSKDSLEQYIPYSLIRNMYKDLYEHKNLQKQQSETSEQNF
The experiment in a line: affinity purification with mass spectrometry; EGFP-Nap1 lightly cross-linked to its neighbors with formaldehyde, immunoprecipitation of GFP, mass spectrometric identification of bound proteins.

B1: sepA (Ste20-family kinase, MAPKKK homologue) (enzyme, UniProt Q8T2I8 1-1167)
chain: MSKKEPEEIKKNVTVGNYNLGVVIGKGGFGTVYQGLDIEDGDFVAIKQINLTKIPKDQLQGIMNEIDLLKNLNHANIVKYIKYVKTKDNLYIVLEYVENGSLSGIIKKFGKFPETLVCVYIRQVLEGLVYLHEQGVVHRDIKGANILTTKEGKIKLADFGVATKFDDTSAAAVVGTPYWMAPEIIELNGATTKSDIWSVGCTVIELLTGSPPYYDLGQMPALFRIVQDDCPPLPEGISPPLKDWLMQCFQKDPNLRISAQKLLKHKWIQASIKKKPVENGAGGVGNGTDSLGAPANIDDIAKNITDYNERINKKPSHQRKPSIHPKSPKGKVFLPPPEEEEDEWGDDFSNTPKSIKLPDKKSPLKLTNNKPSTPLKQQPTNNTPVQQQQQQQQPPPLKLAVPKQPVIENDDDWGDDFNTVSDLSKAVGSLNFNNNKKNETPKPNIKKPTFSEDEDEDDDDDGFGSGGDDEDDDFGDIPTSIKLNPKFGSNIKGNSSGSANTTNSSSTVVQQPKLTVSNNNNNNNKKLPLSPRQPSSGNVKEGINHGSTGSKSGGVIIDQWGEDGEEDNDWGDVATVNFDPKVIRKGTVNKPDLSTRLKNRIALSETALSNSFNNNGNDDEDEDIFADDFDEDDDEDFDLDKNLMKDNYARMSSEILKLMNLLTPEQPEEVISSACTQLITMFKENSEQKTLLIRRHGVIPIMEMLEVSNIQSHVLCSILKVVNQIIDNNMEIQENLCLVGGIPAIMKFSGPEYPASVRLETASFISKMCSTSTLTLQMFIACKGLPILVDFLLSPYAESKRLVWMAVDAIVNVFELQSPTPKNDFCRLFSKCGLLKTLPIVLRDSIADGEAAATYPDRIINLFIMFSAADSVVRKTMSAVEVIRPILDTLSQLMPEQLAKVLKSIKQLSMDHNTLANLQNAGAIRFMVPFLGRRTGAFVAEIHNHVLNTMFHLCRIDPERQYQAAIDGIIPHLQYFITSHSPLNQFALPIICDLAHSKKARSELWKNNGVAFYLSLLEERYWQVNALDSLAVWITDETHKVENIIATNENIKKLIQLFTNAESQSFAGILEPLLKIIQISIPVNILLGTSNFITKIIDKLGHTNPQVRLNLLKIITSLYECHPNAKKMIQEFKLIPIIQKIADTDKSVLVQKMASKLLEAFNANTVI
For B1, the binding entry is recorded as “binds”.
